Experimental data published in paper PMC5992529.
No constants are given. Whether binding was seen depends on the method and setting. In cells and extracts the contact can be indirect. Some binding calls cover weakened binding; strength is not graded here. Where a sequence is shown, tags or fusion partners need not be part of it. One block for each binder: values may come before it.

Columns and labels:
[1] = biological target: T1, EGFP-fused IFT70A (human) (UniProt Q86WT1); experiment: co-IP; visible immunoprecipitation (VIP) assay (red fluorescence on the beads seen under a microscope) and immunoblot of the same beads; lysate of HEK293T cells cotransfected with EGFP-IFT70A or EGFP-IFT70B and ONE mChe fusion alone; precipitated with GST-tagged anti-GFP nanobody on glutathione-Sepharose; HMDEKN buffer (10 mM HEPES pH 7.4, 5 mM MgSO4, 1 mM DTT, 0.5 mM EDTA, 25 mM KCl, 0.05% NP-40), 1 h at 4°C
T1 sequence: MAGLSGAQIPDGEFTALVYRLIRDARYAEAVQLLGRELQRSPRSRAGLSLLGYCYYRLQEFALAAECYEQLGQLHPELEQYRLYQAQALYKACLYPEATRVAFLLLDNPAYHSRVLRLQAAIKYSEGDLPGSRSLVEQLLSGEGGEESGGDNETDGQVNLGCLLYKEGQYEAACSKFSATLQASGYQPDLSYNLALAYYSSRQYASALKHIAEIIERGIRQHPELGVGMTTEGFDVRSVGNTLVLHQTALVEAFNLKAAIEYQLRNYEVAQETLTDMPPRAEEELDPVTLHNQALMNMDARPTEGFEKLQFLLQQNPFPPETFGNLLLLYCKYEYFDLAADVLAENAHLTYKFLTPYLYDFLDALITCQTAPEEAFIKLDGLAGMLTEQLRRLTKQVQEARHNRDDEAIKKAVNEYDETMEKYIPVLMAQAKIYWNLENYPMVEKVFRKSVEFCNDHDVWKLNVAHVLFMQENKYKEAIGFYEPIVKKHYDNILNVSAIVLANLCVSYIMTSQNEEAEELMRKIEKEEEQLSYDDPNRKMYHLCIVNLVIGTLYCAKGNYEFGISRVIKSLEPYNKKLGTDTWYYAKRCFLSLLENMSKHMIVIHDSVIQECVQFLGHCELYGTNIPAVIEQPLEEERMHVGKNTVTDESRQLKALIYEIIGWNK

[2] = biological target: T1, EGFP-fused IFT70A (human); experiment: co-IP; VIP assay and immunoblot of the same beads; lysate of HEK293T cells cotransfected with EGFP-IFT70A or EGFP-IFT70B and mChe-IFT52 + mChe-IFT88 together; precipitated with GST-tagged anti-GFP nanobody beads; HMDEKN buffer pH 7.4, 1 h at 4°C
[3] = biological target: T2, EGFP-fused IFT70B (human) (UniProt Q8N4P2); experiment: as above
T2 sequence: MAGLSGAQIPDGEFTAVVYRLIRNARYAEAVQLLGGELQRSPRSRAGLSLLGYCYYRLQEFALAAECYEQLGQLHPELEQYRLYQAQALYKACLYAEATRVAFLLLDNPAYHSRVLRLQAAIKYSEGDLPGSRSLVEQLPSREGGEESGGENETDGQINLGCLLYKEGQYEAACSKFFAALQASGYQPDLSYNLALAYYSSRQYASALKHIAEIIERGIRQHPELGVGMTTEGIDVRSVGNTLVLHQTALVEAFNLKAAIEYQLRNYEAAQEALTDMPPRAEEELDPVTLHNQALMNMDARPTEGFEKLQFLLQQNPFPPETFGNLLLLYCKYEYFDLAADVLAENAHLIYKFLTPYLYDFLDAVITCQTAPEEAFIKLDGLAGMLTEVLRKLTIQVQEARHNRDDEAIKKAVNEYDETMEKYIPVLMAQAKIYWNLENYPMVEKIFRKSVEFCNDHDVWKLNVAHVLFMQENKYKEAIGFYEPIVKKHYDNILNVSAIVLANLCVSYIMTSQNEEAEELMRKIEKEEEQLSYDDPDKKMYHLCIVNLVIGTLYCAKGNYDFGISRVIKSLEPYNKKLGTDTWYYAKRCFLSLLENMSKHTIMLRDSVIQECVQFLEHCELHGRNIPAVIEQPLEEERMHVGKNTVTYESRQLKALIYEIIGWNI

[4] = biological target: T3, EGFP-fused IFT88 (UniProt Q13099); experiment: co-IP; VIP assay and immunoblot of the same beads; lysate of HEK293T cells cotransfected with EGFP-IFT52 + EGFP-IFT88 together and an mChe-fused IFT70A construct; precipitated with GST-tagged anti-GFP nanobody beads; HMDEKN buffer pH 7.4, 1 h at 4°C
T3 sequence: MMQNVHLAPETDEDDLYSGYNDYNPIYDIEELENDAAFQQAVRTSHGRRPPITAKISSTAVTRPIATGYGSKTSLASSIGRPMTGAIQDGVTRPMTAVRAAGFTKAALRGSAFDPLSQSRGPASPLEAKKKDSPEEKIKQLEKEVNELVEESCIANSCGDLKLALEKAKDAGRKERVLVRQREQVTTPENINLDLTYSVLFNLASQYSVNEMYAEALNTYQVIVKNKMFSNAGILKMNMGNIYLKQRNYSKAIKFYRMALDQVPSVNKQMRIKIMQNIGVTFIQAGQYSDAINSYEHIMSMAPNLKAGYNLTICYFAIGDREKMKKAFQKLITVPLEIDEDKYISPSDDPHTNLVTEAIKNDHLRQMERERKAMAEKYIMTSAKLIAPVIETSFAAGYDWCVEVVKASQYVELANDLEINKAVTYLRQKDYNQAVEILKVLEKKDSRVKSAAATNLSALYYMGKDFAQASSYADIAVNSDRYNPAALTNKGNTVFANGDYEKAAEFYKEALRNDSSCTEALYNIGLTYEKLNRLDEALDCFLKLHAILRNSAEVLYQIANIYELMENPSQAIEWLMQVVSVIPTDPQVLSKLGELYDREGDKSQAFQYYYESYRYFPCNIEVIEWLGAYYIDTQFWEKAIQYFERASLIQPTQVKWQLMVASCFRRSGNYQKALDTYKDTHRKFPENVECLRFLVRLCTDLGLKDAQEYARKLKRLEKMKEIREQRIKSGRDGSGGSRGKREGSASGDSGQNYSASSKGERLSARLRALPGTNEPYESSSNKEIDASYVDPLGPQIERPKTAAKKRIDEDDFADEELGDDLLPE

[5] = biological target: T4, EGFP-IFT52 (UniProt Q9Y366); experiment: as above
T4 sequence: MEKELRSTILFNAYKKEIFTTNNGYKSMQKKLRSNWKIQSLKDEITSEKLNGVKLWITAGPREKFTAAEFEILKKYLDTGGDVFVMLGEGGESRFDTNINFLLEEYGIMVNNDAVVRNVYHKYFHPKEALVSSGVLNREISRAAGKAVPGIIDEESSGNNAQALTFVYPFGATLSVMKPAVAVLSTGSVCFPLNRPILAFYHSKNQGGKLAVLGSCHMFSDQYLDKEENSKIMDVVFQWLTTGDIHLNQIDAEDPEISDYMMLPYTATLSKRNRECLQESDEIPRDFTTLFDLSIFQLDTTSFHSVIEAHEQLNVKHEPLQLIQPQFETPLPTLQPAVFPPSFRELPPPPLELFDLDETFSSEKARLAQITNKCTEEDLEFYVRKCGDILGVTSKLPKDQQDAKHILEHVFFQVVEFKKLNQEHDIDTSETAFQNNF

[6] = biological target: T4, EGFP-IFT52; experiment: co-IP; VIP assay and immunoblot of the same beads; lysate of HEK293T cells cotransfected with EGFP-IFT52 alone and an mChe-fused IFT70A construct; precipitated with GST-tagged anti-GFP nanobody beads; HMDEKN buffer pH 7.4, 1 h at 4°C

binding [1]: binds weakly
binding [2]: binds
B1: mCherry (mChe)-fused IFT52 (protein, UniProt Q9Y366 1-437)
chain: T4 sequence

binding [3]: binds
binding [2]: binds
B2: mCherry (mChe)-fused IFT88 (protein, UniProt Q13099 1-824)
chain: T3 sequence

binding [4]: binds
binding [5]: binds
binding [6]: binds
B3: mChe-fused IFT70A(WT) (protein, UniProt Q86WT1 1-665)
chain: T1 sequence
